Experimental data from patent US20080319031A1, “Novel Tyrosine Derivatives” (Orchid Chemicals & Pharmaceuticals Limited, priority 2005, published 2008).
At least one compound was matched to its structure with a doubt left.

Tested on: 3T3-L1 fibroblasts
Assay: Adipogenesis in 3T3-L1 fibroblasts (Oil-red-O staining)
Type: cell-based
Conditions: 3T3-L1, different concentrations, stained on day 13
Method: FIG. 9. Compound 20 in Example 20 is Not Adipogenic.
All known PPARγ agonists induce differentiation in fibroblast cells. The adipogenic potential of these compounds are correlated with their affinity to this receptor. To check quickly the affinity of compound 20 in example 20 to this receptors, 3T3-L1 fibroblasts were treated with either DMSO control or rosiglitazone as positive control or these two compounds for several days at different concentrations. On day 13th, the differentiated adipocytes were stained with Oil-red-O (Sigma) and washed thoroughly to remove unbound stain and visualized under Olympus microscope.

SMILES: CN(CCOc1ccc(CC2SC(=O)NC2=O)cc1)c1ccccn1 (stereo not shown) [rosiglitazone, reference compound]
- adipogenesis (differentiation of fibroblasts): strongly induced adipogenesis
